Data published in patent US7622449B2, “Anti-hypercholesterolemic compounds” (Merck & Co., Inc., priority 2003, dated 2009).
Some of these results come from one statement about several compounds together.

Test system: cholesterol absorption
Test: inhibition of cholesterol absorption in mice
Assay type: in vivo
Conditions: C57BL/6 male mice, oral, 0.12-10 mg/kg, at the lowest dose tested; [3H]-cholesterol counts in liver and plasma after 3 hours

SMILES | percent inhibition of cholesterol absorption [%]
CS(=O)(=O)NCC#Cc1ccc(N2C(=O)[C@H](CC[C@H](O)c3ccc(F)cc3)[C@H]2c2ccc(O[C@@H]3O[C@H](C(=O)O)[C@@H](O)[C@H](O)[C@H]3O)cc2)cc1 [Compound 7b, 4-[(2S,3R)-3-[(3S)-3-(4-fluorophenyl)-3-hydroxypropyl]-1-(4-{3-[(methylsulfonyl)amino]prop-1-yn-1-yl}phenyl)-4-oxoazetidin-2-yl]phenyl β-D-glucopyranosiduronic acid] | > 90
O=C1[C@H](CC[C@H](O)c2ccc(F)cc2)[C@@H](c2ccc(O)cc2)N1c1ccc(F)cc1 [ezetimibe, Ezetimibe] | > 90
